The campaign covered roughly 53,000 sequences. About 3,700 (7%) were called active.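 How the source made its calls: active means gene knockdowns whose robust z-score for IL-1 alpha signal is at least 2 or at most -2, so actives lie on both sides; inactive means the rest.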 Some of the results follow.

Results on 106 sequences are retold here after PubChem BioAssay AID1508600 (Functional Genomics Laboratory (NCATS/FGL), 2020).

This test in a line: Components of the Cytosolic LPS Sensing Pathway: Gene Identification via Genome-wide siRNA Screen.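 Further: robust z of the log signal after scaling to non-targeting control siRNA wells of the plate.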 To be noted: RAW264.7 macrophages, IL-1a HTRF, actives lie on both sides, screened at 100 nM (by protocol), cells primed 5 h with Pam3CSK4 first. An outline of the steps: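 IL-1a HTRF of supernatants after 24 hour LipidA transfection of Pam3CSK4-primed (5 hours) RAW264.7 cells, 48h post-siRNA transfection (100 nM). Scores: percent of plate negative-control median, then log-based robust z-score.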
Background: In TR-FRET formats the signal depends on donor and acceptor labels being close together.
As to CCGGAGUCAGUAUCCAGAATT against Ndufaf4, the z-score is inactive: -0.282. On to GCUUUCUGAAGUAGCAAAGTT against Nit2, for which the z-score is inactive: 0.42. For the sequence GGACGACCAUGAACUUCCCTT against Rmdn2, the z-score was inactive: -0.111. The value for GCAUAUGAUGGUCCUUACCTT against Cox6b1 was inactive: 0.019; that for GCUGCACCAUGAAUGAGUCTT against Il4 was inactive: 0.819.

Consider CCACUCACCCAGAUAGGUATT against AI413582, for which the z-score was inactive: 0.489. Consider “GCUACGUGAAGCUAUAAACTT against 4930447C04Rik”, for which the z-score was inactive: 0.897. Take GGAAAAACUGCUAGAUCUATT against As3mt: the z-score was inactive: 1.49. For the sequence CCAUAGAACCGUCCUAAUUTT against Tbx3, the z-score is inactive: -1.08. Consider GCACCCGAACAUCAUUGCGTT against Map3k9, for which the z-score was inactive: 1.6. As to GGAUCAGGCCCAACUUUAATT against Glra1, the z-score is inactive: -1.26. The value for GCCAGUGCUGGUUUGAAAUTT against Clip4 was inactive: 1.67. With GGAUGUCUGACUCAGGUCUTT against Olfr829 the figure was inactive: 0.0622; with GGAUCUUCCCGUGAACAUCTT against Cndp1, inactive: -0.575; with GCAGACAGCUUCUCACUAUTT against Tmem114, inactive: -0.431. The value for GCGAGUGUUUCUCUUGGGATT against Trpm5 was inactive: -0.303. For GGAGAUGAAGUGGACAGACTT against Anapc13, the z-score is inactive: 1.02.

Regarding GGUGCCUAAUGGAUAAGAATT against Med13l, the z-score is inactive: -0.784. The value for GGAAUUUUACACUUUACCUTT against Klhl11 was inactive: 1.74. With CCGCUUGUAUUCGACUUAUTT against Gm11487 the figure was inactive: -0.418; with GGCCUCCAUAUCUAUCUAUTT against Wdr38, inactive: 0.308; with GGUCUGGAUCUUGUGACCUTT against Tcstv1, inactive: -0.592. With GGAGGAGAUAAAAUUUAACTT against Ift81, the z-score was inactive: 0.657. The value for GGUAUAUUCGGAAACCUAUTT against Abi1 was inactive: -0.243; that for CCUUCAUGUGCAAGGUUGUTT against Ccr9 was inactive: 0.801. With GGAAGAAAAGUCUCAGAAATT against Swt1 the figure was inactive: -0.312. The value for GCUACUGCACAAAGUUACGTT against Ankrd36 was inactive: -0.0351.

Turning to GCUAUUCUGGUGUCAAGACTT against Gbp2b, the z-score was inactive: -0.548.

As for CCUCCAAUCAGAAAGGUCGTT against Cmtr1, the z-score is inactive: -0.651.

As for GCUUUCUUUAUAUUGACUGTT against Olfr692, the z-score was inactive: 0.0698.

For the sequence GGGUGUGACCGAAGCUCAUTT against Gatd3a, the z-score is inactive: -0.581. With GCUUCUAUUUUGGAUGAUGTT against Skint10 the figure was inactive: -1.2; with GGCAUGGACCAAAUAAAUATT against Snap23, inactive: -0.562; with GGUGUCACAUUCUUUUUUUTT against Pcolce2, inactive: 0.98. Turning to GCGAGUUGAUGAGCUCUAGTT against Sult1b1, the z-score is inactive: 0.702. The value for GCAUUGUUUUUCUAUUCAGTT against Cfhr1 was inactive: 0.531.

For the sequence GGCGAAUGCAUAAACUAAATT against Abat, the z-score was inactive: 0.744. Take CGACCUGACCUUUUUUUCCTT against Ipmk: the z-score is inactive: -0.465.

As for GCAAGUCGUAAGCCUCAGGTT against Mrps10, the z-score is inactive: 0.533. The value for GCCGGAAUGAAUACAUGCGTT against Elk1 was inactive: -1.54. Consider GGAUCAAGUCCAAUCUAAATT against Cdh5, for which the z-score was inactive: -0.193. Turning to GGCACUCAGCAAGAUUGUATT against Nr2c2ap, the z-score was inactive: -0.28. For CGACAUAGCAAUCACAUGATT against Lmo2, the z-score is inactive: -0.125. With GGCCAAUCCACGAAAGCAUTT against Strip1 the figure was inactive: -0.958; with GGAAGAACAGGAAGAAGUGTT against Pank1, inactive: 1.02; with GGUUGAAGUCUAUUCUCGATT against Trap1, inactive: -0.139. On to GGGAAAAUGGCUUAACCGUTT against Siglecg, for which the z-score is inactive: 0.703. The value for CGCAAACCUACAGCUCUGATT against Rhox10 was inactive: -0.909. In the case of GGAGGAUCUUAAGAAGUUCTT against Chchd6, the z-score was inactive: 0.689.

On to GCACCUGAUUAAGUUGCAUTT against Med15, for which the z-score was active: -2.11. With GGCAAUAACAUUCGGUAUUTT against Snrpd1 the figure was active: -2.29. The value for GGUCGAACGAUUCUGCUGUTT against Slfn5 was inactive: 0.207; that for GCCAUAUAUCUGCUAUCAUTT against Clvs2 was active: 2.34; that for GGCCAAGUUCUACAAUGACTT against Ptp4a3 was inactive: 0.222.

On to GGCAAGAAAGGACCAAUGGTT against Cln8, for which the z-score was inactive: 0.206.

On to GGAUGCUGAUUGAAUUCUATT against Slc16a9, for which the z-score is inactive: -0.579. For the sequence GGAAAAGAUCAGAGAAUACTT against Hnrnpab, the z-score is inactive: 0.504. With GGAUAUUUCCAGACAAUAUTT against Podnl1 the figure was inactive: -1.42; with GGAUGCUAAAAAACCAAUGTT against Ndufs1, inactive: 0.701. As to GGAGUUGAAACUGAAUACATT against Pramel7, the z-score is inactive: -0.329. Consider GCUCUCACAGUUGCAUUCGTT against Lrrc58, for which the z-score is inactive: 0.624.

Take GCUGCUCAAGAUCAUUUGATT against Fam135b: the z-score is inactive: 0.638.

GGACCUCUUCAAUUGGACATT against Fut4: the z-score is inactive: -0.435. As for “GGAGACUGCUAUAUUGGCUTT against 1700092C17Rik”, the z-score was inactive: -0.147. As for CCUCUACAAUGUAACCAACTT against Kir3dl2, the z-score was inactive: -0.183. On to CGAGUUUGGACAUACCUUUTT against Atg13, for which the z-score is inactive: 1.24. Consider GCUAACCAUGUGACAAUAATT against Timm8a1, for which the z-score was inactive: -1.39. The value for GGCAACUUGUUCCAGCAAUTT against Aifm1 was inactive: -0.755. The value for GCUAACUGAAAGGUUCUUCTT against Eif3l was inactive: 0.126; that for CCAUCAAAGAAACAGAUUGTT against Fibin was inactive: -0.513. Regarding CGAUGUUAUCAGUUUCAUATT against Sema3d, the z-score was inactive: 0.758. Turning to GGAGCUUAUCAACUACUAUTT against Cltc, the z-score is inactive: -0.181. With GCAUGGAGUCUGGUAUCUGTT against Olfr504 the figure was inactive: -1.33; with GGAGCCAAGAGUGAAGAACTT against Tbp, inactive: -0.183.

In the case of CCAAAGUGGUUUUCAUCCUTT against Hps3, the z-score was inactive: 0.434. For the sequence GGAUCUCCAAGUUAAAGAATT against Pigo, the z-score is inactive: -0.562. In the case of GGCCUUCCUUCCCUUAGAGTT against Tmem222, the z-score was inactive: 0.191. The value for “GGAAAGACUUGCAUUUUCUTT against 1700010I14Rik” was inactive: 1.61; that for GGGCAGAACUGCAUGAGAATT against Acp1 was inactive: -0.176; that for GAUGCGGCUCCUUGGAAUUTT against Slc51b was active: 2.38. With GGAAGGGUCACUACAGGCATT against Rnf31 the figure was inactive: 0.595; with GGCUGUGCUCCUUGUUAGUTT against Olfr1143, inactive: -0.083; with GGAACAUUUACAACAUCCATT against Itgb2, inactive: -0.614.

For the sequence GGCAUUUCUUGUGUUACGUTT against Prxl2c, the z-score was inactive: -0.632. On to GGCUAAGAAACUGAAGAGATT against Ccm2l, for which the z-score was inactive: -1.59. In the case of GCGAUCCUCUCUACUUAACTT against Eno4, the z-score is inactive: -1.49. The value for GGAUUUAACCUCUCCAACUTT against Olfr1030 was inactive: -0.043. In the case of GGCAAGCUUGAAUAAUGAATT against Fam104a, the z-score is inactive: -0.33.

For the sequence GGGCUUUUUUCUUAAUGCCTT against Pramel3, the z-score was inactive: -1.13. The value for GGUGAAACGGGACAUGCAATT against Mfsd1 was inactive: -1.3; that for GCUGGAGGUAUUCAACAUGTT against Gorasp1 was inactive: 0.59. The value for CGGUUACUUUUGAAGCUUGTT against Ogfod1 was inactive: 1.49; that for GGCUGGAGAUCUCUCAAAGTT against Nkain2 was inactive: 1.64; that for GGUCUUCAAAAUCAUCCCUTT against Ces2e was inactive: 0.221. The value for GCUACUGUGUCGGUCACAUTT against Olfr514 was inactive: 0.753; that for GGAAAAUGUCACUUUAUGGTT against Fcgr1 was inactive: 0.556; that for GCACCUCUAUGAGAGGACATT against Anxa8 was inactive: 0.678. As for GCUUAAAAUUCGGUAAGGATT against Il17ra, the z-score was inactive: 0.366. In the case of GGCAAAUUCGAAAUAGACATT against Evx2, the z-score is inactive: 0.227. Take “CCUCCAAGAUCACUGAACATT against 2410018L13Rik”: the z-score is inactive: -0.536.

On to CCCUCUGGCUAAUAAAUGATT against Spaca6, for which the z-score was inactive: 1.75. With GGAUGUUCUGUUCUUGAAGTT against Pgk1, the z-score is inactive: 1.36.

Take GGCUUCUUCCUUGAGAGUCTT against Tgfa: the z-score is inactive: 0.162.

Consider GGAUAAAGGCCUGAGCGAUTT against Wwc2, for which the z-score was inactive: -0.575.

Take CGCAUUUGAAAAAGAGUGGTT against Ndufs5: the z-score was inactive: -1.31. As to CCUUUGGAAACAACCACUUTT against Ugt1a6a, the z-score was inactive: 0.604.
